# Tests used:
# [1] = Effect of aluminum chloride and alum on phosphorus solubility and pH of swine manure slurry (Example 1)
# [2] = Effect of 10 ml of 10% alum or aluminum chloride on soluble reactive phosphorus and pH of fresh liquid swine waste (Example 2); details: 10 ml of 10% solution per 100 ml slurry
smiles,measurement,setting,value
[Cl][Al]([Cl])[Cl] [aluminum chloride],pH,"[1]; 0-10 ml of 10% solution per 100 ml slurry, FIG. 2",reduced the pH
same,hydrogen sulfide gas formation,[1]; treatment added to swine manure slurry,did not result in hydrogen sulfide gas formation
same,soluble phosphorus levels (SRP),"[2]; 3 days at 25° C., FIG. 3",greatly reduced soluble phosphorus levels
same,decrease in soluble phosphorus,[2]; versus control,about 100 fold

# Source: patent US7011824B2, “Methods of treating manure” (priority 1998, dated 2006)
